No constants are given. Whether binding was seen depends on the method and setting. In cells and extracts the contact can be indirect. Some binding calls cover weakened binding; strength is not graded here. For part of these data: Tags and fused reporters may be left off the sequences shown.
Columns and labels:
Flag-PTPN21 (human) = molecular target: T1, Flag-PTPN21 (human) (UniProt Q16825); test: co-IP; HeLa transfected with the Flag-tagged phosphatase (with HA-DLC1 where named), serum and amino acids starved for 1 h or left untreated; immunoprecipitation with anti-Flag, Western blot
T1 sequence: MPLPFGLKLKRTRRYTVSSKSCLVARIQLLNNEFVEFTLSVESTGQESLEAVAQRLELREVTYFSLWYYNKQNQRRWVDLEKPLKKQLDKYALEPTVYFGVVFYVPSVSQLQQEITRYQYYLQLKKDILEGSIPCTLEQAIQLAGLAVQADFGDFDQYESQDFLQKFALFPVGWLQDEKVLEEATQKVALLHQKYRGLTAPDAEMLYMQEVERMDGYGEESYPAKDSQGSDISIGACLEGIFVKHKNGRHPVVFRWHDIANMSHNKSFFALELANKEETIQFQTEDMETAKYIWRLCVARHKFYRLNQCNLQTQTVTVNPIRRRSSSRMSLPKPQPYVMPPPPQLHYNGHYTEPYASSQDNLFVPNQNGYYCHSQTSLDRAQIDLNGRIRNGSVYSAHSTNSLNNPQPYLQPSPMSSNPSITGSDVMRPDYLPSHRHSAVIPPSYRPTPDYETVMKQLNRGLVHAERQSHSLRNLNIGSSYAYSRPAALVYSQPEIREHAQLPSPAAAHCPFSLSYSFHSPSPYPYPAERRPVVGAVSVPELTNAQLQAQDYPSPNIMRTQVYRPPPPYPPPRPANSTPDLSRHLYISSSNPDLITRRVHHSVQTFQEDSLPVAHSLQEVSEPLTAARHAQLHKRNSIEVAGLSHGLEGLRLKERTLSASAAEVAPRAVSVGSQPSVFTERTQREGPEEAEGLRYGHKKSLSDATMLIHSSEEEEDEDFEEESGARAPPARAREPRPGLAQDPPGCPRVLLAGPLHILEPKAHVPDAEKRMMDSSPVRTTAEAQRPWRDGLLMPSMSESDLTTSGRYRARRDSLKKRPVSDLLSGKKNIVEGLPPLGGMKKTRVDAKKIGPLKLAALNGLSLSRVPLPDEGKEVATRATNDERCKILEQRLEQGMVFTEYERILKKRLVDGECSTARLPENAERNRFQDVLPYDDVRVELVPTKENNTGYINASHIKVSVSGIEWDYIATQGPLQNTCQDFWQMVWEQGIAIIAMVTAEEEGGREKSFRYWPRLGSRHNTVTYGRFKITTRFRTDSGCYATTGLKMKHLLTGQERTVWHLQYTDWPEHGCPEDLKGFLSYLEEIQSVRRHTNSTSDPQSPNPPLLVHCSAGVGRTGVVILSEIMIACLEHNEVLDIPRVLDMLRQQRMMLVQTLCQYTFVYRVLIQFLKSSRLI

Sequences of proteins named here, by UniProt entry; tags and fusion partners are left off.
UniProt P67775: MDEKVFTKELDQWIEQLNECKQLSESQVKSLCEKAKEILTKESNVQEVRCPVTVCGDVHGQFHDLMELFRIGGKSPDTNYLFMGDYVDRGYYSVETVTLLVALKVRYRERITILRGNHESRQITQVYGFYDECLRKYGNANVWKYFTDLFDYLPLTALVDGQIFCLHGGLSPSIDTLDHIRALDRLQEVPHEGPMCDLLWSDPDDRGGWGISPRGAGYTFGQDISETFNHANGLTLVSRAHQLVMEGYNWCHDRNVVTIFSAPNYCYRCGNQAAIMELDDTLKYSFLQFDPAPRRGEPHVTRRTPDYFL
UniProt P63167: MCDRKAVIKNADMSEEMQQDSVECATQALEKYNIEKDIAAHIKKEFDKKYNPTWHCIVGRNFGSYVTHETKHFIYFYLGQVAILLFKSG
UniProt Q14160: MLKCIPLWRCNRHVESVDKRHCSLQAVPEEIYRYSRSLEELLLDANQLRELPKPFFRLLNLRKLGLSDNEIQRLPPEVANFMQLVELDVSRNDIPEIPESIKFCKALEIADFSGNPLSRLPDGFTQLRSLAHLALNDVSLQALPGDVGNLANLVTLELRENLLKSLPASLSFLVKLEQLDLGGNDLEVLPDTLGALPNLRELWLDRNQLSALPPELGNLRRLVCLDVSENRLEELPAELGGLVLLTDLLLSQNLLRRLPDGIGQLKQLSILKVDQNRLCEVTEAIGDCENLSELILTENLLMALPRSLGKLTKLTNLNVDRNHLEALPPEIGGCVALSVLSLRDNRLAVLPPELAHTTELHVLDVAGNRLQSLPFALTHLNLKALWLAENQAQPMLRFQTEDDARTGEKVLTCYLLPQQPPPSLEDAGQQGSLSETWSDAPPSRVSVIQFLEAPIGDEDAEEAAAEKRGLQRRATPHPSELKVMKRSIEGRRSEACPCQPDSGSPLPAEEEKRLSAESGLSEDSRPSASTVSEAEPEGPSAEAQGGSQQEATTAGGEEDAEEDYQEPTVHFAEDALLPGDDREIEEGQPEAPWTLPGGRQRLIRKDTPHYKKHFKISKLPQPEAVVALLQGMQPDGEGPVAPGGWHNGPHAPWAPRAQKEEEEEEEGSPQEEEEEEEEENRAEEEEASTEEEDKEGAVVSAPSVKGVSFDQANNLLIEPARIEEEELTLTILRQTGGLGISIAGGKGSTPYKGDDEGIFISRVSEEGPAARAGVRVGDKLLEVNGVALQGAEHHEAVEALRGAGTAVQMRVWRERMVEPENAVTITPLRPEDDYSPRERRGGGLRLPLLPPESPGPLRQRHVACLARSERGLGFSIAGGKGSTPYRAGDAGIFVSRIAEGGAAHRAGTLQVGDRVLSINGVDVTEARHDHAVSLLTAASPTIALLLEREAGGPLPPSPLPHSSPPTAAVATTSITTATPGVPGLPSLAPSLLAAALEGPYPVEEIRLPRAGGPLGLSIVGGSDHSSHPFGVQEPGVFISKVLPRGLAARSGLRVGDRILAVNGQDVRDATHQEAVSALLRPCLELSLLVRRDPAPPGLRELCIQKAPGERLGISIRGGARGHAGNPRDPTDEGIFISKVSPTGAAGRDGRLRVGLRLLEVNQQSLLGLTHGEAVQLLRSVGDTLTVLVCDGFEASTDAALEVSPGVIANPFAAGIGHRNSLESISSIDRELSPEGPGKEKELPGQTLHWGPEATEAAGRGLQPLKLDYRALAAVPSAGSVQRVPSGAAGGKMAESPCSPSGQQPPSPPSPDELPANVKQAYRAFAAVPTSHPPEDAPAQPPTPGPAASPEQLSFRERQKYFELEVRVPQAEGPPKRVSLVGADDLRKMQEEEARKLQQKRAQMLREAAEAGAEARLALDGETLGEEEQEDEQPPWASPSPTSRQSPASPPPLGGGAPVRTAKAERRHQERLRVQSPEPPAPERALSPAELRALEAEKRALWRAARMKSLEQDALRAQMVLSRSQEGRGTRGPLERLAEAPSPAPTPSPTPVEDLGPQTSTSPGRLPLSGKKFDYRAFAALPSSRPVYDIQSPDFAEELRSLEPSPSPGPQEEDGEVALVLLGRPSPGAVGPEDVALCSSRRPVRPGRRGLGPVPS

Flag-PPP2CA (human) = Flag-PPP2CA (human) (UniProt P67775); test: as above
Flag-DUSP26 (human) = molecular target: T2, Flag-DUSP26 (human) (UniProt Q9BV47); test: co-IP; H1299 transfected with HA-SCRIB, Flag-DUSP26 or both; immunoprecipitation with anti-Flag or with anti-HA; detection with anti-SCRIB or anti-DUSP26
T2 sequence: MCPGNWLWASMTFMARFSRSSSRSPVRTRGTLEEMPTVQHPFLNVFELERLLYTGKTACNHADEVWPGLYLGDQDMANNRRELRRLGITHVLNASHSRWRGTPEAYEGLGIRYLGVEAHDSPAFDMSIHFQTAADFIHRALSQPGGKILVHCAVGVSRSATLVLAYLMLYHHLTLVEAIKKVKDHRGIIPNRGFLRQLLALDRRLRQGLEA

binding (Flag-PTPN21 (human)) | binding (Flag-PPP2CA (human)) | binding (Flag-DUSP26 (human)) | Substance
binds | binds |  | HA-DLC1 (from UniProt P63167 1-89)
 |  | binds | HA-SCRIB (from UniProt Q14160 1-1655)
